From US6348348
Construct, isoform or probe ends are uncertain for at least one entry.

How the values were obtained:
[1] = test system: TR/RXR heterodimer (thyroid hormone receptor / retinoid X receptor); assay: EMSA; settings: protein translated in vitro
[2] = test system: endogenous thyroid hormone receptor (GH1 cells) (rat); assay: activity in cells; settings: 106HE-tkluc in GH1 cells activated by 10^-7 M L-T3; protein in cells
[3] = test system: TR/RXR heterodimer (thyroid hormone receptor / retinoid X receptor); assay: competition with a labelled probe; settings: oligos C and E containing this sequence compete for binding to 106 bp fragment; protein translated in vitro; variant of rat hr 106 bp HinfI-EagI fragment

AGTCAGGCCAAGCTGCCACTAATCCGGGCGGGGAGAGGGGGGGCACCCACGTCAGAGCGGGGACTGCCGGGTGGAGGGCATCTGAGGACATCCCCTCCCACTCACGCGGCC (double strand) [rat hr 106 bp HinfI-EagI fragment]
binding result ([1]; described as high affinity, requires both TR and RXR, 5% gel 0.5xTBE, label: 32P): binds | activity on this sequence [2]: active

GGTGGAGGGCATCTGAGGACATC (double strand) [23 bp sequence shared by oligos C and E (hr TRE, DR+4)]
binding result [3]: binds

TGGAGGGCATCTGAGGACATC (double strand) [minimal hr TRE]
binding result ([1]; minimal sequence assayed that binds TR/RXR and confers thyroid hormone responsiveness, variant of rat hr 106 bp HinfI-EagI …): binds
